Laboratory results reported in patent US20250143305A1, “PYRAZOLE COMPOUND AND PEST CONTROL AGENT CONTAINING THE SAME AS ACTIVE INGREDIENT” (MITSUI CHEMICALS CROP & LIFE SOLUTIONS, INC., priority 2022, published 2025).
Some entries share one result that the patent states for a list of compounds.

Key:
Assay type in all cases: in vivo
[1] = system: Myzus persicae; experiment: Insecticidal test against Myzus persicae, root part of radish seedling immersed; conditions: 100 ppm, 2% acetone aqueous solution, 25 young larvae, 25° C., after 5 days
Description: (§1) Insecticidal Test Against Myzus persicae
12.5 ml of a 2% acetone aqueous solution in which the test compound was adjusted to a predetermined concentration was placed in a container, and a root part of a young radish (Raphanus sativus) seedling that was fixed with a sponge and parasitized with 25 young larvae was immersed. The container was allowed to stand in a thermostatic chamber at 25° C., and the numbers of living insects and dead insects were examined after 5 days.

[2] = system: Nilaparvata lugens; experiment: Insecticidal test against Nilaparvata lugens, spray on rice seedling; conditions: 100 ppm; acetone solution sprayed on rice seedling; 10 young larvae; 25° C.; after 6 days
[3] = system: Nilaparvata lugens; experiment: Insecticidal test against Nilaparvata lugens, root part of rice seedling immersed; conditions: 100 ppm, 2% acetone aqueous solution, 10 young larvae, 25° C., after 6 days
[4] = system: Myzus persicae; experiment: Insecticidal test against Myzus persicae, spray on radish leaves; conditions: 100 ppm; 20% acetone aqueous solution sprayed on radish leaves; 25 young larvae; 25° C.; after 5 days
Description: as §1
2.5 ml of a 20% acetone aqueous solution prepared to have a predetermined concentration of the test compound was sprayed on the leaves of radish (Raphanus sativus) in which the roots retained water and 25 young larvae were parasitized. After air drying, it was allowed to stand in a thermostatic chamber at 25° C., and the number of living insects and the number of dead insects were examined after 5 days.

[5] = system: Sogatella furcifera; experiment: Insecticidal test against Sogatella furcifera, spray on rice seedling; conditions: 100 ppm; acetone solution sprayed on rice seedling; 10 young larvae; 25° C.; after 6 days
[6] = system: Spodoptera litura; experiment: Insecticidal test against Spodopteta litura, cabbage leaf pieces immersed; conditions: 1,000 ppm; cabbage leaf pieces immersed 30 seconds; five 2nd instar larvae; 25° C.; after 6 days
Description: Insecticidal Test Against Spodopteta litura
Cabbage (Brassicae oleracea) leaf pieces were immersed in a chemical solution prepared to have a predetermined concentration of the test compound for 30 seconds, air-dried, then placed in a 7 cm polyethylene cup with a filter paper laid thereon, and five 2nd instar larvae of Spodoptera litura were released. The container was allowed to stand in a thermostatic chamber at 25° C., and the numbers of living insects and dead insects were examined after 6 days.

Measured: mortality rate

CCS(=O)(=O)c1c(-c2cn3cnc(C(F)(F)F)cc3n2)nn(C)c1NC(=O)C(F)F [compound 2]
≥ 50%: [1] | [2] | [3] | [4]

CCS(=O)(=O)c1c(-c2cn3cnc(C(F)(F)F)cc3n2)nn(C)c1NC(C)=O [compound 3]
not listed: [6]
≥ 50%: all other assays above

CCS(=O)(=O)c1c(-c2nc3cc(C(F)(F)F)ncn3n2)nn(C)c1NC(=O)C(F)(F)F [compound 8]
not listed: [6]
≥ 50%: all other assays above

CCS(=O)(=O)c1c(-c2nc3cc(C(F)(F)F)ncn3n2)nn(C)c1NC(=O)C(F)F [compound 9]
not listed: [6]
≥ 50%: all other assays above

CCS(=O)(=O)c1c(-c2cn3cnc(C(F)(F)F)cc3n2)nn(C)c1NC(=O)C(F)(F)C(F)(F)C(F)(F)C(F)(F)F [compound 56]
not listed: [6]
≥ 50%: all other assays above

CCSc1c(-c2cn3cnc(C(F)(F)F)cc3n2)nn(C)c1NC(=O)C(F)(F)C(F)F [compound 58]
≥ 50%: [5] | [1] | [2] | [4]

CCS(=O)(=O)c1c(-c2cn3cnc(C(F)(F)F)cc3n2)nn(C)c1NC(=O)C(F)(F)C(F)F [compound 59]
not listed: [6]
≥ 50%: all other assays above

CCn1nc(-c2cn3cnc(C(F)(F)F)cc3n2)c(S(=O)(=O)CC)c1NC(=O)C(F)(F)F [compound 64]
not listed: [6]
≥ 50%: all other assays above

CCS(=O)(=O)c1c(-c2cn3cnc(C(F)(F)F)cc3n2)nn(C2CC2)c1NC(=O)C(F)(F)C(F)F [compound 383]
not listed: [1]
≥ 50%: all other assays above

CCn1nc(-c2cn3cnc(C(F)(F)F)cc3n2)c(S(=O)(=O)CC)c1NC(=O)C(F)(F)Cl [compound 407]
not listed: [1]
≥ 50%: all other assays above

CCS(=O)(=O)c1c(-c2cn3cnc(C(F)(F)C(F)(F)F)cc3n2)nn(C)c1NC(=O)C(F)(Cl)Cl [compound 410]
not listed: [1]
≥ 50%: all other assays above

CCS(=O)(=O)c1c(-c2cn3cnc(C(F)(F)C(F)(F)F)cc3n2)nn(C)c1NC(=O)C(F)(F)Cl [compound 413]
not listed: [1]
≥ 50%: all other assays above

CCS(=O)(=O)c1c(-c2cn3cnc(C(F)(F)C(F)(F)F)cc3n2)nn(C)c1NC(=O)C(F)F [compound 416]
not listed: [1]
≥ 50%: all other assays above

CCS(=O)(=O)c1c(-c2cn3cnc(C(F)(F)C(F)(F)F)cc3n2)nn(C)c1NC(=O)C(C)(F)F [compound 422]
not listed: [1]
≥ 50%: all other assays above
